This experiment deals with HA-Tat (HIV-1 Tat, HA-tagged) (HIV-1) (UniProt P04608). As to the kind of experiment: affinity purification with mass spectrometry; HA-Tat immunoaffinity purified complexes from HeLa cells, analysed by MudPIT proteomics.

By UniProt entry, the sequences of proteins in these tests, tags left out.
UniProt P04608: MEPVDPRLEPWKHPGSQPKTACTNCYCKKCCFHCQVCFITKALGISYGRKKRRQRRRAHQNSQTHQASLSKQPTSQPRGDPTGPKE
UniProt Q9NT62: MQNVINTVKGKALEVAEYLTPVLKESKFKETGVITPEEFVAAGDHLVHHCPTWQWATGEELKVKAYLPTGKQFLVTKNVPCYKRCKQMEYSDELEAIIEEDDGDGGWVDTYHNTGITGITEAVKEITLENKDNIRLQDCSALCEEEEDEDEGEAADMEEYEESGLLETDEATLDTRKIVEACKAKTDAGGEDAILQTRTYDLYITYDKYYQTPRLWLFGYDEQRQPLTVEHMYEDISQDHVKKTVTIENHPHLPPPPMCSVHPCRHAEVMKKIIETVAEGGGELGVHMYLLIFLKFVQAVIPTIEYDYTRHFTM
UniProt P11142: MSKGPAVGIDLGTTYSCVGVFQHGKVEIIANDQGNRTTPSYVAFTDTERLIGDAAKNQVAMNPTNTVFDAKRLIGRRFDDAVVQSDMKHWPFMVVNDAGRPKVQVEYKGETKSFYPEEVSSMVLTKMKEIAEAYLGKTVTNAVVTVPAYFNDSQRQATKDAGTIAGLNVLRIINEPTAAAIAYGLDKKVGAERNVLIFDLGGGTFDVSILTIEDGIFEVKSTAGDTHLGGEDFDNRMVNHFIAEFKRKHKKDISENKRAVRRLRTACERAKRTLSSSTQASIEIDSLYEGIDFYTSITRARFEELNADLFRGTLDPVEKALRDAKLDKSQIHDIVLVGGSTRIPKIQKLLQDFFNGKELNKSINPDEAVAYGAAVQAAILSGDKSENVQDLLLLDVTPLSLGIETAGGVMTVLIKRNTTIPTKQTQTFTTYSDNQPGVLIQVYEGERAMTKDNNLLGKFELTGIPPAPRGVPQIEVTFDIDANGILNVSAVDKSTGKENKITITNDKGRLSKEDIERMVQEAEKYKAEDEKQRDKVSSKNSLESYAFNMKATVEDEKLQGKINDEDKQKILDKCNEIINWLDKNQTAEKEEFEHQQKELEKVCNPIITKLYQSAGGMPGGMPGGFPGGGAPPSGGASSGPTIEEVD
UniProt Q9NP77: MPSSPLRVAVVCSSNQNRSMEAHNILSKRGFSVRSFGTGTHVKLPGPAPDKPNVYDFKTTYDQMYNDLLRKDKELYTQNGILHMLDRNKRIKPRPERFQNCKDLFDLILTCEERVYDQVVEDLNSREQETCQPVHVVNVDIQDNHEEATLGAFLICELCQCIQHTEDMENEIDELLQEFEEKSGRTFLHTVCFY

The record followed here is publication PMC5988312.

Results are given in words; binding and its absence hold for the method and conditions named. Binding seen in cells or lysates may run through a third protein. A yes stands for co-enrichment or nearness to the bait. Other partners may have been found.

With ATG3 (from UniProt Q9NT62 1-314), the binding entry was “binds”.

On to HSC70 (from UniProt P11142 1-646), for which the binding entry is given as “binds”.

Regarding SQSTM1/p62 (from UniProt Q13501 1-440), the binding result was “binds”.

For SSU72 (from UniProt Q9NP77 1-194), the binding entry was “binds”.
